Reference: paper PMC12813162
These are yes or no findings as the source states them, for the method shown. In cells and extracts the contact can be indirect. These calls come from enrichment with a bait or labelling near it, and not all partners need be listed. For some assays here: No binding means not detected with the bait. Each block holds one molecule with its values, some of them ahead of it.

Chains of the proteins cited; added tags and fusions are not shown.
UniProt Q01484: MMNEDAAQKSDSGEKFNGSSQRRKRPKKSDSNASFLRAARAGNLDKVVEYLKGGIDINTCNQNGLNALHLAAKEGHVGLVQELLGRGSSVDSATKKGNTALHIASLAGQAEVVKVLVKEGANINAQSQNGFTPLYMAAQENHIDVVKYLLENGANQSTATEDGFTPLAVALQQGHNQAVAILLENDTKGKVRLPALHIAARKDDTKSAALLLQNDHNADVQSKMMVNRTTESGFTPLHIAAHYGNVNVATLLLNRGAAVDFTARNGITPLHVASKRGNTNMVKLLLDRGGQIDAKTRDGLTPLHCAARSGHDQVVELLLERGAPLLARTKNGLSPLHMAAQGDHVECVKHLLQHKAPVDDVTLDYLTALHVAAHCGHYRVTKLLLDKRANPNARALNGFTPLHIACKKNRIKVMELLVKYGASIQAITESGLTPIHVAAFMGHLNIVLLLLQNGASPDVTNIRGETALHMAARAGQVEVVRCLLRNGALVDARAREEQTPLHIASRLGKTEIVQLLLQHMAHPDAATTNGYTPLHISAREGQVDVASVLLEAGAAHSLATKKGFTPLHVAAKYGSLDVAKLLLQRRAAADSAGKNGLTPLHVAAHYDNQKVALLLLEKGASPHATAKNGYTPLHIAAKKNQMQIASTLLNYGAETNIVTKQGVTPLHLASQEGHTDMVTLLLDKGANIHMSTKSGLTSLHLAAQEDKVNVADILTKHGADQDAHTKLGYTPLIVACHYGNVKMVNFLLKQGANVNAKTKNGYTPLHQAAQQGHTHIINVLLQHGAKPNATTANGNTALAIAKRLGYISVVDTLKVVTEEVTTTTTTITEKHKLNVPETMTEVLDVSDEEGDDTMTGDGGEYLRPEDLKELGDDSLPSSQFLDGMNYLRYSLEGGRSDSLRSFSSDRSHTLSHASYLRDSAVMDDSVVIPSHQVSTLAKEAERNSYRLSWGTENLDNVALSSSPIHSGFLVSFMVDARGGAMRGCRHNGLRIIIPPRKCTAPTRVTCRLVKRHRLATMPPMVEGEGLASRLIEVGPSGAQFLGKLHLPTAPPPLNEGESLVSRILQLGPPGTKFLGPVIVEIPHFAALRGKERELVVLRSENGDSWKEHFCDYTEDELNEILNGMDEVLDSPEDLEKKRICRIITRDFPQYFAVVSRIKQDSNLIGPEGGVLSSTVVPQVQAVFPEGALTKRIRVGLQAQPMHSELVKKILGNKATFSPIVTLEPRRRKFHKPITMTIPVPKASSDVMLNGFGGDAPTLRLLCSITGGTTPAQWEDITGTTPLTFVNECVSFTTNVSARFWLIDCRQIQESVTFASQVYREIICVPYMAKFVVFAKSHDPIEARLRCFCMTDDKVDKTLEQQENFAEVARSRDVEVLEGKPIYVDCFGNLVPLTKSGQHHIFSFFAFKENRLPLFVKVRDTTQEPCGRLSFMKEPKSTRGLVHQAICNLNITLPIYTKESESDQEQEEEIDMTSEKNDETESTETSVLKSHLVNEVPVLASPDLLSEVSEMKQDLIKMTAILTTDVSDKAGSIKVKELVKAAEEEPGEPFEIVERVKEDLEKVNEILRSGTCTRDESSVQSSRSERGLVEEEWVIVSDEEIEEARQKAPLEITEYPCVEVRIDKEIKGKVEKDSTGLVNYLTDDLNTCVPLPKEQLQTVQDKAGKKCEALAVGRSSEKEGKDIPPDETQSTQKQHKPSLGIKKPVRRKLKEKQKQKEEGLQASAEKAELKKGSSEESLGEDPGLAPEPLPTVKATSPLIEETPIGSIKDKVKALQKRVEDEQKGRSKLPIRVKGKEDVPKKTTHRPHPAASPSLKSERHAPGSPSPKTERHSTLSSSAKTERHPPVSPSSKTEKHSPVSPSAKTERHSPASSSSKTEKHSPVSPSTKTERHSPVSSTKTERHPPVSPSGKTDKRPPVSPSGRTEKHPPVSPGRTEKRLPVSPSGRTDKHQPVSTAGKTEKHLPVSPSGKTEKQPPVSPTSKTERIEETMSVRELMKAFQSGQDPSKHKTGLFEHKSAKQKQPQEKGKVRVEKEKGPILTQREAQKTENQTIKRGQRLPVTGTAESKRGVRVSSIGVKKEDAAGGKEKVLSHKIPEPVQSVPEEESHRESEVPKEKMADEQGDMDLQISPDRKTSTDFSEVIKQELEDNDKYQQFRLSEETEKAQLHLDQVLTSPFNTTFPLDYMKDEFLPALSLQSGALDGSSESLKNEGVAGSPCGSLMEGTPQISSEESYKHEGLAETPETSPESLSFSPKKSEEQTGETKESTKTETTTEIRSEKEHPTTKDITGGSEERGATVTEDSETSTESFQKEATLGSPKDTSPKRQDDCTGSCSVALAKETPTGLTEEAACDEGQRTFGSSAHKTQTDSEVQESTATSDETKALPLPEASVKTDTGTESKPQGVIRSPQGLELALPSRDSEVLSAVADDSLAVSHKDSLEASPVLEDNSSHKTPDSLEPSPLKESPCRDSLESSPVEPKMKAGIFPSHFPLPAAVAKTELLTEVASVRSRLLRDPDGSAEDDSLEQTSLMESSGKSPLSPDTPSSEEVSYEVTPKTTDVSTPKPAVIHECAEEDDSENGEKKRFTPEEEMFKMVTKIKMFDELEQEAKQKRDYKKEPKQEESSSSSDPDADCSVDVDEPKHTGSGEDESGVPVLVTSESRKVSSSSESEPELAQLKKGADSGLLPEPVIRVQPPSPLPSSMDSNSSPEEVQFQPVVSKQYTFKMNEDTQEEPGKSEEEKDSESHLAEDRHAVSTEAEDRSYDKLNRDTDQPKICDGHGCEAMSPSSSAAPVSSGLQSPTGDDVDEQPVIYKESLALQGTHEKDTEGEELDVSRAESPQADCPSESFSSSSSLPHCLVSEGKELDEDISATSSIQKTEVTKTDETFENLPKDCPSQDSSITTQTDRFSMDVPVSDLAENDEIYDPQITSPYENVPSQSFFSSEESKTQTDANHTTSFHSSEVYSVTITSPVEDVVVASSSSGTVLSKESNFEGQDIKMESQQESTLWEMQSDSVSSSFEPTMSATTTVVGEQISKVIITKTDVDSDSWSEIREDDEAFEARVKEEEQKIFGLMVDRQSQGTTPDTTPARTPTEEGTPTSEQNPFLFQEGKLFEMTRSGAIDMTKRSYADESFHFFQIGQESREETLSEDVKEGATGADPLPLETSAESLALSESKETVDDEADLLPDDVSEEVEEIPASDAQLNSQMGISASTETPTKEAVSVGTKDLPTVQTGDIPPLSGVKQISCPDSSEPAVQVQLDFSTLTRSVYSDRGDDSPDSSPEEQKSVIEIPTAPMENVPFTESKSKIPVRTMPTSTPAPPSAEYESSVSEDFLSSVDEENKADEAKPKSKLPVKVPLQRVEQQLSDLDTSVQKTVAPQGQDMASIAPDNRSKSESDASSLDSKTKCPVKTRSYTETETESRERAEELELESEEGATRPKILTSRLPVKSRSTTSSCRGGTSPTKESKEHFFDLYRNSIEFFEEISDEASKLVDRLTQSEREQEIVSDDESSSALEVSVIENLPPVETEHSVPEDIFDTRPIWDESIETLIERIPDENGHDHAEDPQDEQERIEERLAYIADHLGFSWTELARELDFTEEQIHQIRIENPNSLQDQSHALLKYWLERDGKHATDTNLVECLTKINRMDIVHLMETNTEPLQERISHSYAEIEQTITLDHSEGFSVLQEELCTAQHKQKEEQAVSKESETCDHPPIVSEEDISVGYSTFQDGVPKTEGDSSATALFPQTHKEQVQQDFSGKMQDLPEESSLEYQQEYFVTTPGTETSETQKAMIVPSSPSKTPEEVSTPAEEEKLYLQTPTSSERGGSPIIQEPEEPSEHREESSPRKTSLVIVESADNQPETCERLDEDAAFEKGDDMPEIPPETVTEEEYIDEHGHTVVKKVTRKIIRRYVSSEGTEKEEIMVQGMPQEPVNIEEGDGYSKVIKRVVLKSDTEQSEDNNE
UniProt Q8N0U8: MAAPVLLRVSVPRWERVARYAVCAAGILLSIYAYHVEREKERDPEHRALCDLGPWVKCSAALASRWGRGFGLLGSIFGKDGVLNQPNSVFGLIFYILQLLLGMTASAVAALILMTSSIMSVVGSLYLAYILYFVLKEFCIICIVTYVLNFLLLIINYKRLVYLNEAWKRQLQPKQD
UniProt P46379: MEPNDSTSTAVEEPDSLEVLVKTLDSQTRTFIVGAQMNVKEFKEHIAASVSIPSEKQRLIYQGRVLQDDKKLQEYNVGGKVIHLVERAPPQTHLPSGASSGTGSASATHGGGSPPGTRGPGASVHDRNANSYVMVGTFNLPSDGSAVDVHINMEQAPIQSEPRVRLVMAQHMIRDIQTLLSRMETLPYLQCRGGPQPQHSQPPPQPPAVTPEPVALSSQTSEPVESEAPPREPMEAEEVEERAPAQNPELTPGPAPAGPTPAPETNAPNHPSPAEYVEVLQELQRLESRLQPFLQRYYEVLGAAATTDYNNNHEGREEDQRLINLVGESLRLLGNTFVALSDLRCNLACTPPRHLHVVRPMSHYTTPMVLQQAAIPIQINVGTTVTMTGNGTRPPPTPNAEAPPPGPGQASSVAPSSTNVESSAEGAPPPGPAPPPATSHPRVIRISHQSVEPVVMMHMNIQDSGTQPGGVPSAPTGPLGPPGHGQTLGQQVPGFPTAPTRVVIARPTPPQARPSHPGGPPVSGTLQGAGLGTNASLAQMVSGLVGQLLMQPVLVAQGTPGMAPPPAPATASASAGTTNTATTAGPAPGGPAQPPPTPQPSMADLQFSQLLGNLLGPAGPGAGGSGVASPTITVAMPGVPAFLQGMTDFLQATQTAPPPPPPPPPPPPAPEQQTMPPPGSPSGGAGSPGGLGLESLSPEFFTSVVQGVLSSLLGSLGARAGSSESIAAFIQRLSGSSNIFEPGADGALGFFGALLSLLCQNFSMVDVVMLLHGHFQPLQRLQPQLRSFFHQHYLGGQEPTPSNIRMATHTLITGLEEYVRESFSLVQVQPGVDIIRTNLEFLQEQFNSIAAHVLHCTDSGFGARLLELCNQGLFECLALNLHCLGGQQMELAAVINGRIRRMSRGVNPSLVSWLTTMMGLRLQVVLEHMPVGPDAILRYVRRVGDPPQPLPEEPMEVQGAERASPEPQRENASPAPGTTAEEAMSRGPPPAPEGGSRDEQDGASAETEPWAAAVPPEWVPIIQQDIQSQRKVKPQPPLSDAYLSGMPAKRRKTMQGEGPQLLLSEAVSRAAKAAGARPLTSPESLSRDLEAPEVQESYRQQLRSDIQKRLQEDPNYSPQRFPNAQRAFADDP
UniProt Q07812: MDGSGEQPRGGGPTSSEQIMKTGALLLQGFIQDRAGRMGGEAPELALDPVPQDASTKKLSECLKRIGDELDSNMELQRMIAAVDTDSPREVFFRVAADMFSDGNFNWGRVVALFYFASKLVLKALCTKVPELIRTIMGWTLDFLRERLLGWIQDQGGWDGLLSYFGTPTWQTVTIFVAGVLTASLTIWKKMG

Assays:
[1] = target: Ubiquilin-2 4XALS (P497H, P506T, P509S, P525S) (human (endogenous in iPSCs and iMNs)) (UniProt Q9UHD9); experiment: affinity purification with mass spectrometry; endogenous UBQLN2 immunoprecipitated with UBQLN2 antibodies and Dynabeads Protein G from the soluble fraction (1% CHAPS buffer) of iMNs; label-free quantitative MS
[2] = target: Ubiquilin-2 4XALS (P497H, P506T, P509S, P525S) (human (endogenous in iPSCs and iMNs)) (UniProt Q9UHD9); experiment: affinity purification with mass spectrometry; endogenous UBQLN2 immunoprecipitated with UBQLN2 antibodies and Dynabeads Protein G from the soluble fraction (1% CHAPS buffer) of iPSCs, basal or after heat stress (42 °C, 1 h); label-free quantitative MS; UBQLN2^I498X cells as control
[3] = target: Ubiquilin-2, wild type (human (endogenous in iPSCs and iMNs)) (UniProt Q9UHD9); experiment: as above
[4] = target: Ubiquilin-2, wild type (human (endogenous in iPSCs and iMNs)) (UniProt Q9UHD9); experiment: affinity purification with mass spectrometry; endogenous UBQLN2 immunoprecipitated with UBQLN2 antibodies and Dynabeads Protein G from the soluble fraction (1% CHAPS buffer) of iMNs; label-free quantitative MS
[5] = target: Ubiquilin-2 4XALS (P497H, P506T, P509S, P525S) (human (endogenous in iPSCs and iMNs)) (UniProt Q9UHD9); experiment: affinity purification with mass spectrometry; endogenous UBQLN2 immunoprecipitated with UBQLN2 antibodies and Dynabeads Protein G from the soluble fraction (1% CHAPS buffer) of iPSCs, basal or after heat stress (42 °C, 1 h); label-free quantitative MS; UBQLN2^I498X cells as control; remark: listed apart in the source
[6] = target: Ubiquilin-2 P497H (human (endogenous in iPSCs and iMNs)) (UniProt Q9UHD9); experiment: affinity purification with mass spectrometry; endogenous UBQLN2 immunoprecipitated with UBQLN2 antibodies and Dynabeads Protein G from the soluble fraction (1% CHAPS buffer) of iMNs; label-free quantitative MS
[7] = target: Ubiquilin-2 P497H (human (endogenous in iPSCs and iMNs)) (UniProt Q9UHD9); experiment: affinity purification with mass spectrometry; endogenous UBQLN2 immunoprecipitated with UBQLN2 antibodies and Dynabeads Protein G from the soluble fraction (1% CHAPS buffer) of iPSCs, basal or after heat stress (42 °C, 1 h); label-free quantitative MS; UBQLN2^I498X cells as control
[8] = target: Ubiquilin-2, wild type (human (endogenous in iPSCs and iMNs)) (UniProt Q9UHD9); experiment: affinity purification with mass spectrometry; as a1, iPSCs after heat stress (42 °C, 1 h) only
[9] = target: Ubiquilin-2, wild type (human (endogenous in iPSCs and iMNs)) (UniProt Q9UHD9); experiment: affinity purification with mass spectrometry; endogenous UBQLN2 immunoprecipitated with UBQLN2 antibodies and Dynabeads Protein G from the soluble fraction (1% CHAPS buffer) of iPSCs, basal or after heat stress (42 °C, 1 h); label-free quantitative MS; UBQLN2^I498X cells as control; remark: listed apart in the source

Molecule: ANK2 (from UniProt Q01484 1-3957)
- binding [2]: binds

Molecule: VKORC1L1 (from UniProt Q8N0U8 1-176)
- binding [3]: binds

B1: paternally expressed gene 10 (protein, UniProt Q86TG7 1-708)
chain: MTERRRDELSEEINNLREKVMKQSEENNNLQSQVQKLTEENTTLREQVEPTPEDEDDDIELRGAAAAAAPPPPIEEECPEDLPEKFDGNPDMLAPFMAQCQIFMEKSTRDFSVDRVRVCFVTSMMTGRAARWASAKLERSHYLMHNYPAFMMEMKHVFEDPQRREVAKRKIRRLRQGMGSVIDYSNAFQMIAQDLDWNEPALIDQYHEGLSDHIQEELSHLEVAKSLSALIGQCIHIERRLARAAAARKPRSPPRALVLPHIASHHQVDPTEPVGGARMRLTQEEKERRRKLNLCLYCGTGGHYADNCPAKASKSSPAGKLPGPAVEGPSATGPEIIRSPQDDASSPHLQVMLQIHLPGRHTLFVRAMIDSGASGNFIDHEYVAQNGIPLRIKDWPILVEAIDGRPIASGPVVHETHDLIVDLGDHREVLSFDVTQSPFFPVVLGVRWLSTHDPNITWSTRSIVFDSEYCRYHCRMYSPIPPSLPPPAPQPPLYYPVDGYRVYQPVRYYYVQNVYTPVDEHVYPDHRLVDPHIEMIPGAHSIPSGHVYSLSEPEMAALRDFVARNVKDGLITPTIAPNGAQVLQVKRGWKLQVSYDCRAPNNFTIQNQYPRLSIPNLEDQAHLATYTEFVPQIPGYQTYPTYAAYPTYPVGFAWYPVGRDGQGRSLYVPVMITWNPHWYRQPPVPQYPPPQPPPPPPPPPPPPSYSTL
- binding [5]: binds

B2: FAM168A (protein, UniProt Q92567 1-244)
chain: MNPVYSPVQPGAPYGNPKNMAYTGYPTAYPAAAPAYNPSLYPTNSPSYAPEFQFLHSAYATLLMKQAWPQNSSSCGTEGTFHLPVDTGTENRTYQASSAAFRYTAGTPYKVPPTQSNTAPPPYSPSPNPYQTAMYPIRSAYPQQNLYAQGAYYTQPVYAAQPHVIHHTTVVQPNSIPSAIYPAPVAAPRTNGVAMGMVAGTTMAMSAGTLLTTPQHTAIGAHPVSMPTYRAQGTPAYSYVPPHW
- binding [1]: binds

B3: UBL4A (protein, UniProt P11441 1-157)
chain: MQLTVKALQGRECSLQVPEDELVSTLKQLVSEKLNVPVRQQRLLFKGKALADGKRLSDYSIGPNSKLNLVVKPLEKVLLEEGEAQRLADSPPPQVWQLISKVLARHFSAADASRVLEQLQRDYERSLSRLTLDDIERLASRFLHPEVTETMEKGFSK
- binding [1]: no binding
- binding [6]: no binding
- binding [5]: no binding
- binding [7]: no binding

B4: HYOU1 (protein, UniProt Q9Y4L1 33-999)
chain: LAVMSVDLGSESMKVAIVKPGVPMEIVLNKESRRKTPVIVTLKENERFFGDSAASMAIKNPKATLRYFQHLLGKQADNPHVALYQARFPEHELTFDPQRQTVHFQISSQLQFSPEEVLGMVLNYSRSLAEDFAEQPIKDAVITVPVFFNQAERRAVLQAARMAGLKVLQLINDNTATALSYGVFRRKDINTTAQNIMFYDMGSGSTVCTIVTYQMVKTKEAGMQPQLQIRGVGFDRTLGGLEMELRLRERLAGLFNEQRKGQRAKDVRENPRAMAKLLREANRLKTVLSANADHMAQIEGLMDDVDFKAKVTRVEFEELCADLFERVPGPVQQALQSAEMSLDEIEQVILVGGATRVPRVQEVLLKAVGKEELGKNINADEAAAMGAVYQAAALSKAFKVKPFVVRDAVVYPILVEFTREVEEEPGIHSLKHNKRVLFSRMGPYPQRKVITFNRYSHDFNFHINYGDLGFLGPEDLRVFGSQNLTTVKLKGVGDSFKKYPDYESKGIKAHFNLDESGVLSLDRVESVFETLVEDSAEEESTLTKLGNTISSLFGGGTTPDAKENGTDTVQEEEESPAEGSKDEPGEQVELKEEAEAPVEDGSQPPPPEPKGDATPEGEKATEKENGDKSEAQKPSEKAEAGPEGVAPAPEGEKKQKPARKRRMVEEIGVELVVLDLPDLPEDKLAQSVQKLQDLTLRDLEKQEREKAANSLEAFIFETQDKLYQPEYQEVSTEEQREEISGKLSAASTWLEDEGVGATTVMLKEKLAELRKLCQGLFFRVEERKKWPERLSALDNLLNHSSMFLKGARLIPEMDQIFTEVEMTTLEKVINETWAWKNATLAEQAKLPATEKPVLLSKDIEAKMMALDREVQYLLNKAKFTKPRPRPKDKNGTRAEPPLNASASDQGEKVIPPAGQTEDAEPISEPEKVETGSEPGDTEPLELGGPGAEPEQKEQSTGQKRPLKNDEL
- binding [8]: no binding (only after heat stress (42 °C, 1 h))
- binding [5]: binds
- binding [7]: binds
- binding [9]: binds

B5: BTBD2 (protein, UniProt Q9BX70 1-525)
chain: MAAGGSGGRASCPPGVGVGPGTGGSPGPSANAAATPAPGNAAAAAAAAAAAAAAPGPTPPAPPGPGTDAQAAGAERAEEAAGPGAAALQREAAYNWQASKPTVQERFAFLFNNEVLCDVHFLVGKGLSSQRIPAHRFVLAVGSAVFDAMFNGGMATTSTEIELPDVEPAAFLALLKFLYSDEVQIGPETVMTTLYTAKKYAVPALEAHCVEFLKKNLRADNAFMLLTQARLFDEPQLASLCLENIDKNTADAITAEGFTDIDLDTLVAVLERDTLGIREVRLFNAVVRWSEAECQRQQLQVTPENRRKVLGKALGLIRFPLMTIEEFAAGPAQSGILVDREVVSLFLHFTVNPKPRVEFIDRPRCCLRGKECSINRFQQVESRWGYSGTSDRIRFSVNKRIFVVGFGLYGSIHGPTDYQVNIQIIHTDSNTVLGQNDTGFSCDGSASTFRVMFKEPVEVLPNVNYTACATLKGPDSHYGTKGLRKVTHESPTTGAKTCFTFCYAAGNNNGTSVEDGQIPEVIFYT
- binding [1]: binds

Further lines, results first:

- binding [1]: binds
- binding [2]: binds
Molecule: BCL2-associated athanogene 6 (from UniProt P46379 1-1132)

- binding [3]: binds
Molecule: VKORC1 (from UniProt Q9BQB6 1-163)

- binding [4]: binds
Molecule: BAX (from UniProt Q07812 1-192)
